PubChem BioAssay AID1259405 | NCATS | 2018
This is an unselected part of about 50,000 deposited reagents. About 4,000 of all reagents (8%) were called active. 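Mouse siRNA library applied to hamster cells; one well for each siRNA.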 The numbers tell different reagents against one gene apart.

Screen: 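Knock-downs that lift recombinant protein yield in hamster ovary cells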 (primary screen)
Cells: Chinese hamster CHO-K1 ovary cells with stable secreted eGFP expression
Reagent: single siRNA against mouse genes, 0.8 pmol siRNA per well (2 µl of 400 nM stock)
Timing: 3 days
Measurement: 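Per-well intracellular GFP measured by laser scanning cytometry, plus viability from ATP luminescence, each relative to plate median of non-targeting control wells, in %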
Scale: GFP, % of control: higher = more GFP per well, higher productivity; viability (ATP), % of control: higher = more viable cells (more ATP)
Call rule: 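a knock-down is called active if GFP reaches 120% or more of non-targeting control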

gene	siRNA no.	GFP, % of control	viability (ATP), % of control	activity call
Tcaf1 (GeneID 77574)	1	64.1	88.9	inactive
Tcaf1 (GeneID 77574)	2	54.9	66.9	inactive
Tcaf1 (GeneID 77574)	3	93.5	115	inactive
Serpinb3a (GeneID 20248)	1	87.1	105	inactive
Serpinb3a (GeneID 20248)	2	92.8	96.7	inactive
Serpinb3a (GeneID 20248)	3	86.6	85.3	inactive
A830005F24Rik (GeneID 442803)	1	83.6	91.3	inactive
A830005F24Rik (GeneID 442803)	2	65.4	84.4	inactive
A830005F24Rik (GeneID 442803)	3	69.2	94.9	inactive
Prkab1 (GeneID 19079)	1	72.6	91.9	inactive
Prkab1 (GeneID 19079)	2	111	99.1	inactive
Apom (GeneID 55938)	1	28.1	35.5	inactive
Apom (GeneID 55938)	2	58.4	81.2	inactive
Apom (GeneID 55938)	3	88.9	92.5	inactive
Insyn1 (GeneID 319477)	1	123	126	active
Insyn1 (GeneID 319477)	2	94.2	68.9	inactive
Insyn1 (GeneID 319477)	3	91.6	92.1	inactive
Mlx (GeneID 21428)	1	89.9	93.5	inactive
Mlx (GeneID 21428)	2	57.3	74	inactive
Mlx (GeneID 21428)	3	74.9	83.1	inactive
Asb11 (GeneID 68854)	1	13.4	8.86	inactive
Asb11 (GeneID 68854)	2	68.2	74	inactive
Asb11 (GeneID 68854)	3	52.2	72.1	inactive
Gabra5 (GeneID 110886)	1	61.3	84.1	inactive
Gabra5 (GeneID 110886)	2	55.6	60.7	inactive
Gabra5 (GeneID 110886)	3	68.2	69.1	inactive
Pitpna (GeneID 18738)	1	82.9	98.8	inactive
Pitpna (GeneID 18738)	2	126	97.9	active
Aoc1l2 (GeneID 69761)	1	112	64.1	inactive
Aoc1l2 (GeneID 69761)	2	82.8	67.6	inactive
Aoc1l2 (GeneID 69761)	3	62.3	78	inactive
Fam3d (GeneID 18300)	1	60.9	54.5	inactive
Fam3d (GeneID 18300)	2	145	69.3	active
Fam3d (GeneID 18300)	3	89.9	68.1	inactive
Rab3b (GeneID 69908)	1	63.4	83.2	inactive
Rab3b (GeneID 69908)	2	114	105	inactive
Wasf3 (GeneID 245880)	1	86.3	63	inactive
Wasf3 (GeneID 245880)	2	65.7	67	inactive
Wasf3 (GeneID 245880)	3	85.8	73.1	inactive
Egfr (GeneID 13649)	1	107	83.4	inactive
Mospd1 (GeneID 70380)	1	97.5	64.6	inactive
Mospd1 (GeneID 70380)	2	65.2	48.7	inactive
Mospd1 (GeneID 70380)	3	61.9	42	inactive
Adamtsl1 (GeneID 77739)	1	64.8	53.6	inactive
Adamtsl1 (GeneID 77739)	2	100	82.7	inactive
Adamtsl1 (GeneID 77739)	3	79.1	75.6	inactive
Hoxc9 (GeneID 15427)	1	90.8	119	inactive
Hoxc9 (GeneID 15427)	2	37	24	inactive
Hoxc9 (GeneID 15427)	3	72.1	114	inactive
Ogfod1 (GeneID 270086)	1	89.7	82.6	inactive
Ogfod1 (GeneID 270086)	2	64.5	70.7	inactive
Ogfod1 (GeneID 270086)	3	85.7	77	inactive
Abl1 (GeneID 11350)	1	294	94	active
Abl1 (GeneID 11350)	2	62.3	56.3	inactive
Abl1 (GeneID 11350)	3	68.3	79.8	inactive
Abl1 (GeneID 11350)	4	110	77.1	inactive
Abl1 (GeneID 11350)	5	101	99.5	inactive
Abl1 (GeneID 11350)	6	75.4	74.7	inactive
